# According to PubChem BioAssay AID1347431 (National Center for Advancing Translational Sciences (NCATS), 2020):
# Screen size: about 1,200 compounds; fewer than 10 were called active. The call rests on the fitted dose curve; in most records, active means well fitted curve in the direction sought with a large enough effect; inconclusive means small, poorly fitted or top-dose-only effect, or another doubt; inactive means no such curve, though single readings can be large or run the other way. This is one part of the list.
# Assay: Confirmatory qHTS assay for inhibitors of Activation Induced Cytidine Deaminase (AID): UDG signals; further: 0% is about no effect
# Conditions: UDG coupled enzyme activity counter-screen; at 115 µM (top of the series) unless noted
# From the text: Assay Provider (PI) Patricia Gearhart Ph.D.
# National Institute on Aging
# National Institute of Health (NIH), Bethesda, MD
# Assay Provider (PI) Rahul Kohli Ph.D.
# Perelman School of Medicine
# University of Pennsylvania, Philadelphia, PA
# Activation-Induced Deaminase (AID) is a cytosine deaminase which converts cytosine into uracil within stretches of ssDNA. The presence of uracil in DNA initiates a cascade of mutagenic DNA repair to introduce point mutations and DNA double strand breaks. Specific targeting of AID to the immunoglobulin heavy chain loci (Igh) promotes mutagenesis in the antibody variable region for somatic hypermutation (SHM) or switch regions leading to class switch recombination (CSR). However, AID also plays a role in accumulating unnecessary mutations across the genome. Mis-targeting of AID results in the initiation of tumor development and leads to greater drug resistance among cancer cells when continually expressed. To identify an AID inhibitor, a small molecule library will be screened in collaboration with NCATS core facility at NIH. To confirm biological function, inhibitors will be examined in an in vitro murine B-cell activation assay and subsequent secondary validation screens. Top molecules will be further screened to identify inhibitory efficacy against a wild type primary splenocytes assay. Using these approaches, we hope to identify a small molecule with great efficacy and low toxicity for use as a molecular probe to further characterize AID's intricacies, or even as a therapeutic.
# A FRET based analysis of cytosine deamination, was developed to identify potential inhibitors of AID catalytic activity. This screen has two signal output, Read 1 evaluates the AID inhibition response. The second readout (Read 2) evaluates UDG response and is uses as a counterscreen to exclude false positive inhibitors. Inhibition in AID and inactivity in the UDG signal is the desired outcome for this assay.
# SEQUENCE No. (e.g., 1, 2, 3, etc.); […] (e.g., Cells, Incubation, Reagent, etc.); VALUE; DESCRIPTION
# 1a; Reagent; 3 uL; [4/3x] 1 uM AID/2.67 U/mL UDG
# 1b; Reagent; 3 uL; 2 U/mL UDG
# 1c; Reagent; 3 uL; 1 uM AID
# 2a; Compound; 46 nL; Follow-up plates (0.64 uM - 10 mM)
# 2b; Control; 46 nL; ATA ([…] - 10 mM)
# 3; Time; 10 min; incubation at room temperature
# 5; Time; 4 hr; incubation at room temperature
# 6; Reagent; 4 uL; [2x] 250 mM NaOH
# 7; Time; 15 sec; centrifuge at 1000 rpm
# 8; Time; 30 min; incubation at room temperature
# 9a; Detection; fluorescence (Read 1: AID); EnVision (PerkinElmer) plate reader, 540 excitation and 590 emission filters
# 9b; Detection; fluorescence (Read 2: UDG); EnVision (PerkinElmer) plate reader, 560 excitation and 665 emission filters
# NOTES (numbers refer to sequence above)
# 1a; Reagents were dispensed in a medium-binding black solid-bottom Greiner plates (789176F) using a BioRptr liquid dispenser. Dispense 3 uL of [4/3x] 1 uM AID (provided by Kohli lab) and [4/3x] 2 U/mL UDG (NEB M0280L) into columns 1, 2, 5 to 48.
# 1b; Dispense 3 uL of [4/3x] 2 U/mL UDG into column 3.
# 1c; Dispense 3 uL of [4/3x] 1 uM AID into column 4.
# 2a; Compound (7-points [uM]: 0.64; 3.2; 16; 80; 400; 2,000; 10,000; […]) double pin-transferred (Dip Factor = 2) using the Kalypsys (Wako USA) pintool equipped with a 1536 pinhead for a final concentration range of 7.32 nM - 114 uM.
# 2b; 10 mM Aurintricarboxylic Acid (Sigma A1895) (ATA, 8-point, n = 2, 1:2.5 dilution in column 2) double pin-transferred (Dip Factor = 2) using the Kalypsys (Wako USA) pintool equipped with a 1536 pinhead for a [final] range of 186 nM - 114 uM.
# 3; Room temperature incubation.
# 4; Dispense 1 uL of substrate mixture from the Kohli lab [4x] […] DJC20 and [4x] 250 nM DJC23 into columns 1 to 48 .
# 5; Room temperature incubation.
# 6; Dispense 4 uL of substrate mixture [2x] 250 mM NaOH into columns 1 to 48.
# 7; Centrifugation step to remove bubbles.
# 8; Room temperature incubation
# 9a; Fluorescence signal (column label AID) was read using the EnVision plate reader. […]
row,Compound,"activity change, negative = inhibition"
1,COc1ccccc1-c1nn(CCC(=O)Nc2ccc(C)cc2)c2nc(C)cc(C)c12,inactive: -6.55%
2,COc1ccc(OCc2nc3ccccc3n2Cc2ccc(C(C)(C)C)cc2)cc1,inactive: -5.44%
3,Cc1ccc(C)c(N2CCN(CCCNC(=O)c3cnn(-c4cccc(Cl)c4)c3C3CCN(C(=O)OC(C)(C)C)CC3)CC2)c1,inactive: -6.96%
4,Cc1ccc(-n2ncc(C(=O)NCCN3CCC(Cc4ccccc4)CC3)c2C2CCN(C(=O)OC(C)(C)C)CC2)cc1,inactive: -9.39%
5,COc1cc2c(cc1OC)C(COc1cc(C)cc(C)c1)N(C(=O)C(C)(C)C)CC2 (stereo not given),inactive: 6.45%
6,CCN(CC)CCCNC(=O)c1ccc2c(c1)sc1nc(-c3ccc(C)cc3)cn12,inactive: -8.96%
7,COc1ccc(Br)cc1CNC(=O)c1cc2n(n1)CCCN(Cc1ccc(C)cc1)C2=O,inactive: -0.912%
8,CCC(C(=O)Nc1cc(OC)cc(OC)c1)n1nc(-c2ccc(C)c(C)c2)ccc1=O (stereo not given),inactive: -17.8%
9,Cc1ccc(C)c(N2CCN(C(=O)c3ccc(CS(=O)(=O)c4ccc(Br)cc4)o3)CC2)c1,inactive: -4.98%
10,CCC(Sc1nncn2c1cc1occc12)C(=O)Nc1ccc(C)c(Cl)c1 (stereo not given),inactive: 0.215%
11,CCCCN(Cc1ccccc1)C(=O)CN(C)S(=O)(=O)c1ccc2c(c1)c(=O)n(C)c(=O)n2C,inactive: 11.1%
12,Cc1ccc(NC(=O)C2CCCN(S(=O)(=O)c3cccc4cccnc34)C2)cc1Cl (stereo not given),inactive: -24.8%
13,O=C(c1ccc2c(c1)OCO2)c1cn(Cc2ccc(F)cc2)c2ccccc2c1=O,inactive: -2.46%
14,Cc1ccc(-c2noc(CN(C(=O)COc3cc(C)cc(C)c3C)C(C)C)n2)cc1,inactive: 0.248%
15,O=C(C1CCC(Cn2c(=O)c3sccc3n(Cc3ccccc3F)c2=O)CC1)N1CCCCC1 (stereo not given),inactive: -5.65%
16,CCOc1ccccc1CNC(=O)c1cccn1-c1nnc(N2CCCCC2)s1,inactive: -6.77%
17,C=Cc1ccc(CSc2nc(-c3ccc(C)cc3)nc3c2Cc2c(CO)cnc(C)c2O3)cc1,inactive: -10.6%
18,COc1cc2ccccc2cc1C(=O)N1CCN(c2nc3ccc(F)cc3s2)CC1,inactive: -5.87%
19,Cc1ccc(CN(Cc2ccco2)C(=O)COc2ccc(Cl)cc2)o1,inactive: -5.99%
20,O=C(c1ccc2c(Cl)c3c(nc2c1)CCCC3)N1CCN(c2ccccc2F)CC1,inactive: -10.6%

# Part of the list above in order of SMILES length, largest number first:
row,Compound,"activity change, negative = inhibition"
4,Cc1ccc(-n2ncc(C(=O)NCCN3CCC(Cc4ccccc4)CC3)c2C2CCN(C(=O)OC(C)(C)C)CC2)cc1,inactive: -9.39%
7,COc1ccc(Br)cc1CNC(=O)c1cc2n(n1)CCCN(Cc1ccc(C)cc1)C2=O,inactive: -0.912%
12,Cc1ccc(NC(=O)C2CCCN(S(=O)(=O)c3cccc4cccnc34)C2)cc1Cl (stereo not given),inactive: -24.8%

# More results follow:

row,Compound,"activity change, negative = inhibition"
1,Cc1ccc(Cn2cc(S(=O)(=O)c3ccc(C)cc3)c(=O)c3cc(F)c(N4CCCC4)cc32)cc1,inactive: -6.85%
2,COc1ccccc1N1CCN(C(=O)c2cc3ccc4ccc(C)[nH]c4c3n2)CC1,inactive: -15%
3,CC(=O)N1CCCc2cc(S(=O)(=O)N3CCCC(C(=O)N4CCN(c5cc(C)ccc5C)CC4)C3)ccc21 (stereo not given),inactive: -11.8%
4,CCOc1ccc(NC(=O)CCS(=O)(=O)c2ccc(Br)cc2)cc1,inactive: 0.321%
5,CCOc1ccc(Nc2c(S(=O)(=O)c3ccccc3)cnc3ccccc23)cc1,inactive: -4.23%
6,COc1ccc(-c2nc(Cn3c(SCc4ccc(F)cc4)nc4cccnc43)c(C)o2)cc1,inactive: -5.08%
7,Cc1ccc2onc(CC(=O)N3CCN(c4cccc(C)c4C)CC3)c2c1,inactive: -6.56%
8,COc1ccc(C(=O)Oc2ccc(C(c3c(C)[nH][nH]c3=O)c3c(C)[nH][nH]c3=O)cc2OC)cc1,inactive: -3.7%
9,CCc1c(C)nc2nc(-c3ccccc3)nn2c1NCc1ccc(C)cc1,inactive: -0.843%
10,CCN(CC)CCNC(=O)c1ccc2c(=O)n3nc(Nc4ccccc4)sc3nc2c1,inactive: 1.04%
11,CCOc1ccc(CCNC(=O)c2ccc(Cn3c(=O)c4cccn4c4cccnc43)cc2)cc1,inactive: -15.4%
12,Clc1ccc(-c2noc3ncnc(NCCCN4CCN(c5ccccc5)CC4)c23)cc1,inactive: 1.77%
13,CCc1ccccc1Nc1nn2c(=O)c3ccc(C(=O)NCc4cccs4)cc3nc2s1,inactive: -7.73%
14,CCOc1ccc(-c2nc(CSCC(=O)N3CCN(c4cccc(C(F)(F)F)c4)CC3)c(C)o2)cc1,inactive: -17.8%
15,Clc1cccc(N2CCN(c3ncnc4c3nc3n4CCCCC3)CC2)c1,inactive: -13.1%
16,CCc1ccc(NC(=O)c2cc(C(C)=O)n3ccccc23)cc1,inactive: -4.94%
17,O=C1CCSC2(C(=O)N(Cc3ccc(F)cc3)c3ccccc32)N1c1cccc(F)c1 (stereo not given),inactive: -6.62%
18,Oc1ccc(NCc2ccc(OCc3ccccc3)cc2)cc1,inactive: -8.5%
19,Cc1cc(C)c(NC(=O)Cn2c(=O)n(Cc3ccc(C(=O)NCc4ccc5c(c4)OCO5)cc3)c(=O)c3ccccc32)c(C)c1,inactive: 4.18%
20,Cc1ccc2c(c1)-c1c(c(C(=O)N3CCN(c4cc(C)ccc4C)CC3)nn1C)CS2,inactive: -6.29%
